PubChem BioAssay AID504774 | Drosophila RNAi Screening Center | 2011

Aim: 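Fly genes whose loss alters survival after alkylation damage to DNA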 (primary screen)
Cells: Drosophila Kc167 cells
Reagents: long dsRNA against Drosophila genes, about 0.25 µg dsRNA per well
Duration: about 6 days: 3 days knock-down, then 3 days with or without MMS
Challenge: methyl methanesulphonate 0.004% (w/v) for 3 days after knock-down
Measurement: 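ATP-dependent luminescence as a measure of live cells in MMS-exposed wells, quantile normalised within each plate, with replicate values also given as a mean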
Reading the numbers: mean viability with MMS: higher = more surviving cells after MMS
The deposit covers about 23,000 reagents; shown is a random part of those that have a named target and a result. 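Values are quantile-normalised luminescence on an arbitrary scale; higher means more cells surviving MMS.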 The numbers tell different reagents against one gene apart. A plus sign joins genes that one reagent is predicted to hit. Further read-outs or replicates are left out here.

| target gene | reagent | mean viability with MMS |
| --- | --- | --- |
| CG33136 | 1 | 3.45e6 |
| rt (rotated abdomen) | 1 | 3.53e6 |
| CG1695 | 1 | 3.64e6 |
| CG9922 | 1 | 3.64e6 |
| Mec2 | 1 | 3.61e6 |
| sfl (sulfateless) | 1 | 3.34e6 |
| sfl (sulfateless) | 2 | 3.55e6 |
| Pgam5 (Phosphoglycerate mutase 5) | 1 | 3.64e6 |
| shop (shopper) | 1 | 3.71e6 |
| CG5359 | 1 | 3.37e6 |
| CG1275 | 1 | 3.42e6 |
| Cyp4d2 (Cytochrome P450 4d2) | 1 | 3.56e6 |
| pck (pickel) | 1 | 3.43e6 |
| CG8401 | 1 | 3.60e6 |
| rno (rhinoceros) | 1 | 3.61e6 |
| Gnptab | 1 | 3.69e6 |
| CG31370 | 1 | 3.43e6 |
| CG31913 | 1 | 3.57e6 |
| Uba2 (Ubiquitin-like activating enzyme 2) | 1 | 3.23e6 |
| CG14406 | 1 | 3.45e6 |
| CG3566 | 1 | 3.67e6 |
| P32 | 1 | 3.65e6 |
| Ac76E (Adenylyl cyclase 76E) | 1 | 3.60e6 |
| Ac76E (Adenylyl cyclase 76E) | 2 | 3.66e6 |
| svr (silver) | 1 | 3.47e6 |
| svr (silver) | 2 | 3.60e6 |
| CG5892 | 1 | 3.63e6 |
| Oli (Olig family) | 1 | 3.40e6 |
| CG2765 | 1 | 3.47e6 |
| CG4294 | 1 | 3.39e6 |
| gprs | 1 | 3.56e6 |
| alpha4GT2 (alpha1,4-galactosyltransferase 2) | 1 | 3.83e6 |
| sNPF (short neuropeptide F precursor) | 1 | 3.47e6 |
| CG15005 | 1 | 3.64e6 |
| Ir51b (Ionotropic receptor 51b) | 1 | 3.62e6 |
| Adi1 (Acireductone dioxygenase 1) | 1 | 3.75e6 |
| Adi1 (Acireductone dioxygenase 1) | 2 | 3.73e6 |
| CG5421 | 1 | 3.65e6 |
| NFAT (NFAT nuclear factor) | 1 | 3.28e6 |
| NFAT (NFAT nuclear factor) | 2 | 3.50e6 |
| conu (conundrum) | 1 | 3.46e6 |
| CG11920 | 1 | 3.34e6 |
| CG2889 | 1 | 3.63e6 |
| CG13728 | 1 | 3.52e6 |
| lectin-24Db | 1 | 3.47e6 |
| Droj2 (DnaJ-like-2) | 1 | 2.98e6 |
| CG17944 | 1 | 3.55e6 |
| CG30053 | 1 | 3.52e6 |
| DnaJ-1 (DnaJ-like-1) | 1 | 3.42e6 |
| CG3918 | 1 | 2.91e6 |
| CG3918 | 2 | 3.69e6 |
| Cht10 (Chitinase 10) | 1 | 3.63e6 |
| Cht10 (Chitinase 10) | 2 | 3.45e6 |
| Cht10 (Chitinase 10) | 3 | 3.56e6 |
| RnpS1 (RNA-binding protein S1) | 1 | 3.34e6 |
| kek4 (kekkon 4) | 1 | 3.78e6 |
| CG7298 | 1 | 3.56e6 |
| CG10089 | 1 | 3.37e6 |
| CG10089 | 2 | 3.42e6 |
| CG31207 | 1 | 3.64e6 |
| CG3119 | 1 | 3.34e6 |
| CG12831 | 1 | 3.64e6 |
| CG8960 | 1 | 3.44e6 |
| kek3 (kekkon 3) | 1 | 3.67e6 |
| kek3 (kekkon 3) | 2 | 3.54e6 |
| CG11122 | 1 | 3.57e6 |
| CG17931 + CG42446 | 1 | 3.52e6 |
| Ugt302C1 (UDP-glycosyltransferase family 302 member C1) | 1 | 3.44e6 |

5 entries already listed, arranged by “mean viability with MMS”, lowest first.
| target gene | reagent | mean viability with MMS |
| --- | --- | --- |
| sfl (sulfateless) | 1 | 3.34e6 |
| rt (rotated abdomen) | 1 | 3.53e6 |
| Mec2 | 1 | 3.61e6 |
| CG1695 | 1 | 3.64e6 |
| CG9922 | 1 | 3.64e6 |
